{
  "source": "patent US20120094910",
  "about": "(published 2012)",
  "key": {"[1]": {"experiment": "general procedure: Fmoc solid-phase peptide synthesis; Rink amide resin (10 g, loading 1.0 mmol/g); DIC/HOBt", "conditions": "purification step, RP-HPLC and LC-MS"}, "[2]": {"experiment": "general procedure: Fmoc solid-phase peptide synthesis; Rink amide resin; DIC/HOBt", "conditions": "whole synthesis, scale 10 mmol"}},
  "data": [
    {"substance": "Mpa-Tyr-Phe-Gln-Asn-Cys-Pro-DArg-Gly-NH2", "values": [
      {"measurement": "final purity (method not given)", "setting": "[1]", "result": "˜95%"},
      {"measurement": "final HPLC purity", "setting": "[2]; RP-HPLC and LC-MS", "result": "˜95%"},
      {"measurement": "isolated mass", "setting": "[2]", "result": 9.0, "unit": "g"}
    ]}
  ]
}
